Measurements from the supplement of paper PMC12823440, “Inhibitors supercharge kinase turnover through native proteolytic circuits” (Nature, 2025).
Structures can show the parent of a compound that is named as a salt. This is one part of the list. The calls rarely recur for the same compound in another form.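 Kinases were expressed as nanoluciferase fusions in K562 cells and luminescence was read every 4 h between 2 and 18 h as percent of control, DMSO set to 100% and a positive control to 0%. A time point counts as decreased when the signal drops significantly (2 sigma). The hit call is the authors' own, does not follow from the count of time points alone, and its rule is not shown.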

The chains behind the UniProt entries cited, without tags or fusion partners.
UniProt P29317, whole entry: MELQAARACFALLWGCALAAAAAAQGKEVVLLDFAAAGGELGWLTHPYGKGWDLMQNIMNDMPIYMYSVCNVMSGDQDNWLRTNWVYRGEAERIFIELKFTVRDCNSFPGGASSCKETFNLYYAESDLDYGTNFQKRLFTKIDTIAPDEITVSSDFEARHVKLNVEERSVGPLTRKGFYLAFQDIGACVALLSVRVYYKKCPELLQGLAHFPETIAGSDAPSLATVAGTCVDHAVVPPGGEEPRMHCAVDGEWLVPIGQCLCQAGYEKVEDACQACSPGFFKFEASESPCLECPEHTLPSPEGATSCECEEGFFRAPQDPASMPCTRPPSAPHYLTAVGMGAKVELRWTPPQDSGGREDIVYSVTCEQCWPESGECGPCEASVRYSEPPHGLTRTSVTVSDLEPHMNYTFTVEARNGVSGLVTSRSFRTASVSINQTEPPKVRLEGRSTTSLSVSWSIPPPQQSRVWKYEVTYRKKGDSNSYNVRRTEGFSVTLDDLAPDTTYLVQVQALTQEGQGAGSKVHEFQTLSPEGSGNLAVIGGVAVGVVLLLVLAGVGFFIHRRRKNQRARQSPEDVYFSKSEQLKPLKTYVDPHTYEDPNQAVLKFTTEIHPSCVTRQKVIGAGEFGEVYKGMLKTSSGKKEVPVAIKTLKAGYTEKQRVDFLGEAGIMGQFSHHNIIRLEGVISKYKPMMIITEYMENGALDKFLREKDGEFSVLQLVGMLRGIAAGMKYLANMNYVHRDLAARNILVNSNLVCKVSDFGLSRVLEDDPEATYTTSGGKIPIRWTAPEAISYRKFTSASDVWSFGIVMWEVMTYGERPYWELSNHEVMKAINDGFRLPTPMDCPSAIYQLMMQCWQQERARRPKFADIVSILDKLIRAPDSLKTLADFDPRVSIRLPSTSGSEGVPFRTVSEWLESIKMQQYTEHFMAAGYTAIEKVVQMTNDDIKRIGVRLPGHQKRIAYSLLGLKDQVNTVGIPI
UniProt P21860, whole entry: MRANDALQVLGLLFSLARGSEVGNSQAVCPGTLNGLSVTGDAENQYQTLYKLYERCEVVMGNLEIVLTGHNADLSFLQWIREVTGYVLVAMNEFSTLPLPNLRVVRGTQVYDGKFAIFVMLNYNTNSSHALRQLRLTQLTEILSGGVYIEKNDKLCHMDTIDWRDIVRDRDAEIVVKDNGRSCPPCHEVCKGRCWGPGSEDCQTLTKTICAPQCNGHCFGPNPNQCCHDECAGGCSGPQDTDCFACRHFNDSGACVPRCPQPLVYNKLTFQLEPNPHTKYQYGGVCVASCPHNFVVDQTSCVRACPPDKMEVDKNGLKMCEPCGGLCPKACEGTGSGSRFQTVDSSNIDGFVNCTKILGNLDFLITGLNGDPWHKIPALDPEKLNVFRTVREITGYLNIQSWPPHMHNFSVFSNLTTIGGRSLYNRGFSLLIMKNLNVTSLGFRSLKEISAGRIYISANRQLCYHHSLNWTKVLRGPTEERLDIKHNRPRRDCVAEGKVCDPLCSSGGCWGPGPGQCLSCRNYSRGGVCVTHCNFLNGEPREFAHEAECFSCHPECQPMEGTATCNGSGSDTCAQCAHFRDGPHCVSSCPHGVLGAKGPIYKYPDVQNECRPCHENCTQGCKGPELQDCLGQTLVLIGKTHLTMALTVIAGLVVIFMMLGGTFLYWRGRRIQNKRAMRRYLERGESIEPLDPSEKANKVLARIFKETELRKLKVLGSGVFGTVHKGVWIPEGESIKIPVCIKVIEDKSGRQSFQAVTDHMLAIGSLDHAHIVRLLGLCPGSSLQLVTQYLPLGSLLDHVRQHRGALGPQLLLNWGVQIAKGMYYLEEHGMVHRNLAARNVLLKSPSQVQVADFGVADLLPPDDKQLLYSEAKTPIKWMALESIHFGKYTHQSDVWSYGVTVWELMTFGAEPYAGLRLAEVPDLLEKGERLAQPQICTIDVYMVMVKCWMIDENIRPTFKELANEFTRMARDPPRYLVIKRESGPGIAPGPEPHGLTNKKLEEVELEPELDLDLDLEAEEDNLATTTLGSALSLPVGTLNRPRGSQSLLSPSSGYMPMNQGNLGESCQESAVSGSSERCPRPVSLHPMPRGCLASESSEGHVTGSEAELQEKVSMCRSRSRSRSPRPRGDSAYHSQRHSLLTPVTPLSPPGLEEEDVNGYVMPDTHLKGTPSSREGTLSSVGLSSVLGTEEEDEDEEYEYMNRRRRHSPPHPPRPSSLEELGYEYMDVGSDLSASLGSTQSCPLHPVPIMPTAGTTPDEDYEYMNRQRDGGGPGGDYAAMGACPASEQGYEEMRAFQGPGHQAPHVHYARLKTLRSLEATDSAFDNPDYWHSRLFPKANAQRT
UniProt Q15303, whole entry R711C: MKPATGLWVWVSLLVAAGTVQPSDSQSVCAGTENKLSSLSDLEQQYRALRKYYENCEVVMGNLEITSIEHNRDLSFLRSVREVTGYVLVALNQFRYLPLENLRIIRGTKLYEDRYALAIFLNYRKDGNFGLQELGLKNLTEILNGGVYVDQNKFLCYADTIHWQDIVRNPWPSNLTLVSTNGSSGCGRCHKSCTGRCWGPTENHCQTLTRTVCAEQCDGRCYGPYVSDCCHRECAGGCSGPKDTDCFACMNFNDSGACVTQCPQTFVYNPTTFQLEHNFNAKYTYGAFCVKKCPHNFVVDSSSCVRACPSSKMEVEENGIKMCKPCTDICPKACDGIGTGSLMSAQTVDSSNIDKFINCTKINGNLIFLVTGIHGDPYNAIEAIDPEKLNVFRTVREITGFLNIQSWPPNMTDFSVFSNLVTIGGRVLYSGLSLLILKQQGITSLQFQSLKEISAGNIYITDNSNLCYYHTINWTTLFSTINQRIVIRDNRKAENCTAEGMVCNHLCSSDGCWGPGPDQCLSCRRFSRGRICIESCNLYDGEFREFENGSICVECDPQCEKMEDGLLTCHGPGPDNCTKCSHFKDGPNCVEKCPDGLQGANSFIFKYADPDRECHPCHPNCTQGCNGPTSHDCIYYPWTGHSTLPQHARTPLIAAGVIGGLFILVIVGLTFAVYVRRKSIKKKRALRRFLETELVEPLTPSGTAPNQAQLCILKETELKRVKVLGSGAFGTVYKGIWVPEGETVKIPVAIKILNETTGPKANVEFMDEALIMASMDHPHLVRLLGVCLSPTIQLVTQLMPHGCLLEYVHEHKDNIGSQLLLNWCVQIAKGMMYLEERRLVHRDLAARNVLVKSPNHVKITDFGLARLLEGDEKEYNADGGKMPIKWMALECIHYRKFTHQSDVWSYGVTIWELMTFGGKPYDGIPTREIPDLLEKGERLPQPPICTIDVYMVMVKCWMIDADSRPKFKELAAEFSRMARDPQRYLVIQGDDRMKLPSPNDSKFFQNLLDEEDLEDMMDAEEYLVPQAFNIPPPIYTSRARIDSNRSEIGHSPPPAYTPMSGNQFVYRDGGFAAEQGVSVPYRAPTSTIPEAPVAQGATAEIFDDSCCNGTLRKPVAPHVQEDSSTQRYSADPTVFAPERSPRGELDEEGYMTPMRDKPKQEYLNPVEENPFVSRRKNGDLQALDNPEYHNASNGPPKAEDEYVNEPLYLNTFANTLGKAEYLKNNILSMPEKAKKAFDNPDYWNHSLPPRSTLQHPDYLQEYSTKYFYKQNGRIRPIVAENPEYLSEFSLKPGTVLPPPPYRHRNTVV

Key:
Assay in all cases: kinase-Nluc reporter destabilization hit call (1 = scored as downregulated) (binary); higher = compound decreases kinase abundance
Conditions in all cases: K562; 2-18 h
EGFR = EGFR (UniProt P00533)
EGFR_G719S = EGFR_G719S (UniProt P00533)
EGFR_G719S_T790M = EGFR_G719S_T790M (UniProt P00533)
EGFR_L718V = EGFR_L718V (UniProt P00533)
EGFR_L858R = EGFR_L858R (UniProt P00533)
EGFR_L861Q = EGFR_L861Q (UniProt P00533)
EGFR_T790M = EGFR_T790M (UniProt P00533)
EPHA2 = EPHA2 (UniProt P29317)
ERBB3 = ERBB3 (UniProt P21860)
[1] = target: ERBB4_R711C (clone: ERBB4_mut) (UniProt Q15303)

Measured: kinase-Nluc reporter destabilization hit call

COc1cc(N2CCC(N3CCN(C)CC3)CC2)ccc1Nc1ncc(Cl)c(-c2c[nH]c3ccccc23)n1 (2.5 µM)
inactive: EGFR 0 | EGFR_G719S 0 | EGFR_G719S_T790M 0 | EGFR_L718V 0 | EGFR_L858R 0 | EGFR_L861Q 0 | EGFR_T790M 0 | EPHA2 = 0 | ERBB3 = 0 | [1] 0

COC(=O)Nc1ccc(-c2nc(N3CCOCC3)c3cnn(C4CCN(C(=O)OC)CC4)c3n2)cc1 (10 µM)
inactive: EGFR 0 | EGFR_G719S 0 | EGFR_G719S_T790M 0 | EGFR_L718V 0 | EGFR_L858R 0 | EGFR_L861Q 0 | EGFR_T790M 0 | EPHA2 = 0 | ERBB3 = 0 | [1] 0

NC1(C(=O)NCCCn2cc(-c3ccc(OC(F)(F)F)cc3)c3cc(CN4CCN(Cc5c(Cl)cccc5Cl)CC4)ccc32)CCNCC1 (2.5 µM)
inactive: EGFR 0 | EGFR_G719S 0 | EGFR_G719S_T790M 0 | EGFR_L718V 0 | EGFR_L858R 0 | EGFR_L861Q 0 | EGFR_T790M 0 | EPHA2 = 0 | ERBB3 = 0 | [1] 0

CO[C@H]1CC[C@H](N2C(=O)CNc3ncc(-c4ccc(C(C)(C)O)nc4)nc32)CC1 (2.5 µM)
inactive: EGFR 0 | EGFR_G719S 0 | EGFR_G719S_T790M 0 | EGFR_L718V 0 | EGFR_L858R 0 | EGFR_L861Q 0 | EGFR_T790M 0 | EPHA2 = 0 | ERBB3 = 0 | [1] 0

Cc1nc[nH]c1CN1CCN(C(=O)N[C@@H](CC(C)C)C(=O)O)[C@@H](Cc2ccccc2)C1=O (10 µM)
inactive: EGFR 0 | EGFR_G719S 0 | EGFR_G719S_T790M 0 | EGFR_L718V 0 | EGFR_L858R 0 | EGFR_L861Q 0 | EGFR_T790M 0 | EPHA2 = 0 | ERBB3 = 0 | [1] 0

COc1cc(-c2oc3cc(O)cc(O)c3c(=O)c2O)ccc1O [Isorhamnetin] (10 µM)
inactive: EGFR 0 | EGFR_G719S 0 | EGFR_G719S_T790M 0 | EGFR_L718V 0 | EGFR_L858R 0 | EGFR_L861Q 0 | EGFR_T790M 0 | EPHA2 = 0 | ERBB3 = 0 | [1] 0

O=C(Nc1cc(Cl)cc2c1[nH]c1cnccc12)c1cccnc1 (10 µM)
inactive: EGFR 0 | EGFR_G719S 0 | EGFR_G719S_T790M 0 | EGFR_L718V 0 | EGFR_L858R 0 | EGFR_L861Q 0 | EGFR_T790M 0 | EPHA2 = 0 | ERBB3 = 0 | [1] 0

Cc1cc(Nc2cc(N)ncn2)c(=O)n2c1C(=O)NC21CCCCC1 [Tomivosertib] (10 µM)
inactive: EGFR 0 | EGFR_G719S 0 | EGFR_G719S_T790M 0 | EGFR_L718V 0 | EGFR_L858R 0 | EGFR_L861Q 0 | EGFR_T790M 0 | EPHA2 = 0 | ERBB3 = 0 | [1] 0

O=c1c2c([nH]n1-c1nc3ccccc3s1)CCCC2 (10 µM)
inactive: EGFR 0 | EGFR_G719S 0 | EGFR_G719S_T790M 0 | EGFR_L718V 0 | EGFR_L858R 0 | EGFR_L861Q 0 | EGFR_T790M 0 | EPHA2 = 0 | ERBB3 = 0 | [1] 0

N#Cc1ccc2ncnc(NCCc3ccccc3)c2c1 [Senexin A] (10 µM)
inactive: EGFR 0 | EGFR_G719S 0 | EGFR_G719S_T790M 0 | EGFR_L718V 0 | EGFR_L858R 0 | EGFR_L861Q 0 | EGFR_T790M 0 | EPHA2 = 0 | ERBB3 = 0 | [1] 0

COC(=O)/C=C/c1ccccc1 [Methyl cinnamate] (10 µM)
inactive: EGFR 0 | EGFR_G719S 0 | EGFR_G719S_T790M 0 | EGFR_L718V 0 | EGFR_L858R 0 | EGFR_L861Q 0 | EGFR_T790M 0 | EPHA2 = 0 | ERBB3 = 0 | [1] 0

C=C1C(=O)[C@@]23[C@H](O)C[C@@H]4C(C)(C)C(=O)CC[C@@]4(C)[C@@H]2CC[C@@H]1[C@H]3O [Glaucocalyxin A] (2.5 µM)
inactive: EGFR 0 | EGFR_G719S 0 | EGFR_G719S_T790M 0 | EGFR_L718V 0 | EGFR_L858R 0 | EGFR_L861Q 0 | EGFR_T790M 0 | EPHA2 = 0 | ERBB3 = 0 | [1] 0

N#Cc1cnc2c(Cl)cc(NCc3cn(CCN4CCCCCC4)nn3)cc2c1Nc1ccc(F)c(Cl)c1 [Cot inhibitor-1] (10 µM)
inactive: EGFR 0 | EGFR_G719S 0 | EGFR_G719S_T790M 0 | EGFR_L718V 0 | EGFR_L858R 0 | EGFR_L861Q 0 | EGFR_T790M 0 | EPHA2 = 0 | ERBB3 = 0 | [1] 0

Brc1ccc(CSc2nc3ccccc3o2)cc1 [BMP signaling agonist sb4] (10 µM)
inactive: EGFR 0 | EGFR_G719S 0 | EGFR_G719S_T790M 0 | EGFR_L718V 0 | EGFR_L858R 0 | EGFR_L861Q 0 | EGFR_T790M 0 | EPHA2 = 0 | ERBB3 = 0 | [1] 0

O=C1NC(=O)/C(=C\c2c[nH]c(=O)c(-c3ccc(N4CCNCC4)nc3)c2)S1 [Protein kinase inhibitors 1 hydrochloride] (10 µM)
inactive: EGFR 0 | EGFR_G719S 0 | EGFR_G719S_T790M 0 | EGFR_L718V 0 | EGFR_L858R 0 | EGFR_L861Q 0 | EGFR_T790M 0 | EPHA2 = 0 | ERBB3 = 0 | [1] 0

Cc1c(C)c(NCC(=O)N(C)C2CCN(Cc3ccc(C(N)=O)cc3)CC2)c(C)c(C)c1N (10 µM)
inactive: EGFR 0 | EGFR_G719S 0 | EGFR_G719S_T790M 0 | EGFR_L718V 0 | EGFR_L858R 0 | EGFR_L861Q 0 | EGFR_T790M 0 | EPHA2 = 0 | ERBB3 = 0 | [1] 0

CC(Cc1ccc(O)c(O)c1)C(C)Cc1ccc(O)c(O)c1 (stereo not given) [Nordihydroguaiaretic acid] (2.5 µM)
inactive: EGFR 0 | EGFR_G719S 0 | EGFR_G719S_T790M 0 | EGFR_L718V 0 | EGFR_L858R 0 | EGFR_L861Q 0 | EGFR_T790M 0 | EPHA2 = 0 | ERBB3 = 0 | [1] 0

Nc1ncnc2c1nc(Br)n2[C@@H]1O[C@@H]2COP(=O)(O)O[C@H]2[C@H]1O [8-Bromo-cAMP sodium salt] (10 µM)
inactive: EGFR 0 | EGFR_G719S 0 | EGFR_G719S_T790M 0 | EGFR_L718V 0 | EGFR_L858R 0 | EGFR_L861Q 0 | EGFR_T790M 0 | EPHA2 = 0 | ERBB3 = 0 | [1] 0

CCN1CCN(Cc2cnc(Nc3cc(-c4cc(F)c5nc(C)n(C(C)C)c5c4)c(F)cn3)nc2)CC1 (10 µM)
inactive: EGFR 0 | EGFR_G719S 0 | EGFR_G719S_T790M 0 | EGFR_L718V 0 | EGFR_L858R 0 | EGFR_L861Q 0 | EGFR_T790M 0 | EPHA2 = 0 | ERBB3 = 0 | [1] 0

O=C(c1cccc(Cl)c1F)N1CCN(Cc2cccc(Nc3nccs3)n2)CC1 (2.5 µM)
inactive: EGFR 0 | EGFR_G719S 0 | EGFR_G719S_T790M 0 | EGFR_L718V 0 | EGFR_L858R 0 | EGFR_L861Q 0 | EGFR_T790M 0 | EPHA2 = 0 | ERBB3 = 0 | [1] 0

CN1CCN(c2ccc(Nc3ncc4cc(C#N)c(=O)n(C5CCCC5)c4n3)cc2)CC1 (10 µM)
inactive: EGFR 0 | EGFR_G719S 0 | EGFR_G719S_T790M 0 | EGFR_L718V 0 | EGFR_L858R 0 | EGFR_L861Q 0 | EGFR_T790M 0 | EPHA2 = 0 | ERBB3 = 0 | [1] 0

Cn1c2cc([S+](C)[O-])sc2c2cnn(Cc3cccc(N)c3)c(=O)c21 (stereo not given) (2.5 µM)
inactive: EGFR 0 | EGFR_G719S 0 | EGFR_G719S_T790M 0 | EGFR_L718V 0 | EGFR_L858R 0 | EGFR_L861Q 0 | EGFR_T790M 0 | EPHA2 = 0 | ERBB3 = 0 | [1] 0

O=Nc1c(-c2c(O)[nH]c3cc(Br)ccc23)[nH]c2ccccc12 [GSK 3 Inhibitor IX] (2.5 µM)
inactive: EGFR 0 | EGFR_G719S 0 | EGFR_G719S_T790M 0 | EGFR_L718V 0 | EGFR_L858R 0 | EGFR_L861Q 0 | EGFR_T790M 0 | EPHA2 = 0 | ERBB3 = 0 | [1] 0

C=C1CCC[C@]2(C)C=C3OC(=O)C(C)=C3C[C@@H]12 [Atractylenolide I] (10 µM)
inactive: EGFR 0 | EGFR_G719S 0 | EGFR_G719S_T790M 0 | EGFR_L718V 0 | EGFR_L858R 0 | EGFR_L861Q 0 | EGFR_T790M 0 | EPHA2 = 0 | ERBB3 = 0 | [1] 0

Filtered by structure, the compounds so far with an aryl methoxy group (2)
COc1cc(N2CCC(N3CCN(C)CC3)CC2)ccc1Nc1ncc(Cl)c(-c2c[nH]c3ccccc23)n1 (2.5 µM)
inactive: EGFR 0 | EGFR_G719S 0 | EGFR_G719S_T790M 0 | EGFR_L718V 0 | EGFR_L858R 0 | EGFR_L861Q 0 | EGFR_T790M 0 | EPHA2 = 0 | ERBB3 = 0 | [1] 0

COc1cc(-c2oc3cc(O)cc(O)c3c(=O)c2O)ccc1O [Isorhamnetin] (10 µM)
inactive: EGFR 0 | EGFR_G719S 0 | EGFR_G719S_T790M 0 | EGFR_L718V 0 | EGFR_L858R 0 | EGFR_L861Q 0 | EGFR_T790M 0 | EPHA2 = 0 | ERBB3 = 0 | [1] 0

(further entries)

COc1cc2ncnc(Nc3ccc(O)c(Br)c3)c2cc1OC (10 µM)
inactive: EGFR 0 | EGFR_G719S 0 | EGFR_G719S_T790M 0 | EGFR_L718V 0 | EGFR_L858R 0 | EGFR_L861Q 0 | EGFR_T790M 0 | EPHA2 = 0 | ERBB3 = 0 | [1] 0

C=CC(=O)N1CCC[C@@H](n2nc(-c3ccc(Oc4ccccc4)cc3)c3c(N)n[nH]c(=O)c32)C1 [BTK inhibitor 17] (10 µM)
inactive: EGFR 0 | EGFR_G719S 0 | EGFR_G719S_T790M 0 | EGFR_L718V 0 | EGFR_L858R 0 | EGFR_L861Q 0 | EGFR_T790M 0 | EPHA2 = 0 | ERBB3 = 0 | [1] 0

CC(C)(C)Cc1[nH]nc2c1[C@@](C)(c1ccccc1)C1=C(CC(C)(C)CC1=O)N2 (10 µM)
inactive: EGFR 0 | EGFR_G719S 0 | EGFR_G719S_T790M 0 | EGFR_L718V 0 | EGFR_L858R 0 | EGFR_L861Q 0 | EGFR_T790M 0 | EPHA2 = 0 | ERBB3 = 0 | [1] 0

CN1CCN(c2cc(-c3ccncc3)c(-c3ccc4ccccc4c3)nn2)CC1 (10 µM)
inactive: EGFR 0 | EGFR_G719S 0 | EGFR_G719S_T790M 0 | EGFR_L718V 0 | EGFR_L858R 0 | EGFR_L861Q 0 | EGFR_T790M 0 | EPHA2 = 0 | ERBB3 = 0 | [1] 0

Clc1ccc(C(c2ccc(Cl)cc2)[n+]2ccn(CC(OCc3ccc(Cl)cc3Cl)c3ccc(Cl)cc3Cl)c2)cc1 (stereo not given) [Calmidazolium chloride] (2.5 µM)
inactive: EGFR 0 | EGFR_G719S 0 | EGFR_G719S_T790M 0 | EGFR_L718V 0 | EGFR_L858R 0 | EGFR_L861Q 0 | EGFR_T790M 0 | EPHA2 = 0 | ERBB3 = 0 | [1] 0
